In patent publication US12673084B2, “Compositions and methods for combinatorial drug discovery in nanoliter droplets” (The Broad Institute, Inc., priority 2017, dated 2026):
Some results were stated once for a whole list of compounds, not compound by compound.

Test system: E. coli K-12 MG1655
Conditions: against E. coli, checkerboard

Row | SMILES | FIC (synergy criterion) with at least one antibiotic
1 | CCN(CC)CCCC(C)Nc1nc(C)cc(Nc2ccc3nc(C)cc(N)c3c2)n1.Cl.Cl.Cl (racemic) [NSC23766] | <= 0.5
2 | O=C(CNC(=O)c1ccc(Cl)cc1)NO [Benurestat, 2-(para-chlorobenzamide)-acetohydroxamic acid] | <= 0.5
3 | CCc1cc2c(cc1CC)CC(NC[C@H](O)c1ccc(O)c3[nH]c(=O)ccc13)C2 [Indacaterol] | <= 0.5
